Measured values from PubChem BioAssay AID218 (DTP/NCI, 2004).
The list does not hold the whole screen: its compounds were picked by chemical class. Not every dose and run of a compound is shown. T/C gives the treated animals as a percentage of the vehicle group. Schedule codes are those of the source, taken here to give the interval after Q, in days (D) or hours (H), and the number of doses after X. Some entries hold several experiments; the results are listed from low to high. Some T/C values are followed by the survivors on the day toxicity was checked; where neither a count nor a note follows, no animal had died by that day. Some entries give survivors of the animals treated and no T/C: the source holds a T/C of zero for them, seemingly a mark for toxic or unscored doses. Survivors were counted at the toxicity check; its day is shown where the source gives one, and later deaths do not show.

System: C57BL/6 mice, Adenocarcinoma 755 sc, tumor weight T/C
Experiment: NCI In Vivo Anticancer Drug Screen. Data for tumor model Adenocarcinoma 755 (subcutaneous) in C57BL/6 mice
Details: T/C endpoint: mean tumor weight, schedule: Q01DX011 (ip), higher T/C = larger tumour; for T/C: evaluated on day 12
Method: The antitumor activity of compounds was measured in mice bearing transplantable tumors. Survival or tumor size were measured and the results are expressed as the measurement made in the treated group (T) divided by the measurement made in the vehicle treated control group (C). The tumor model used in this assay is Adenocarcinoma 755 (subcutaneous) in C57BL/6 mice

[1] = dose: 1.0 mg/kg/injection, vehicle: saline
[2] = dose: 2.0 mg/kg/injection, vehicle: saline
[3] = dose: 4.0 mg/kg/injection, vehicle: saline
[4] = dose: 8.0 mg/kg/injection, vehicle: saline
[5] = dose: 16.0 mg/kg/injection, vehicle: saline
[6] = dose: 15.0 mg/kg/injection, vehicle: carboxymethylcellulose (CMC)

SMILES: O=C(O)Cc1ccc(N(CCCl)CCCl)cc1
- T/C [1]: 40 % of control [9 of 10 alive]
- T/C [2]: 25 % of control [9 of 10 alive]
- T/C [3]: 51 % of control
- T/C [4]: 50 % of control
- survivor count [5]: 0 of 10

SMILES: NC(Cc1ccc(N(CCCl)CCCl)c(Cl)c1)C(=O)O (stereo not given)
- T/C (dose: 0.25 mg/kg/injection, vehicle: methylcellulose (MC)): 61 % of control [8 of 10 alive]
- survivor count (dose: 0.5 mg/kg/injection, vehicle: methylcellulose (MC)): 6 of 10
- T/C (dose: 1.0 mg/kg/injection, vehicle: methylcellulose (MC)): 72 % of control
- T/C (dose: 2.0 mg/kg/injection, vehicle: methylcellulose (MC)): 10 % of control [8 of 10 alive]

SMILES: O=P1(N(CCCl)CCCl)OCC2CCCN21 (stereo not given)
- T/C (dose: 7.5 mg/kg/injection, vehicle: saline): 101 % of control
- T/C (dose: 15.0 mg/kg/injection, vehicle: saline): 87 % of control
- T/C (dose: 30.0 mg/kg/injection, vehicle: saline): 127 % of control
- T/C (dose: 31.3 mg/kg/injection, vehicle: saline): 201 % of control
- T/C (dose: 62.5 mg/kg/injection, vehicle: saline): 121 % of control
- T/C (dose: 125.0 mg/kg/injection, vehicle: saline): 107 % of control [9 of 10 alive]
- T/C (dose: 250.0 mg/kg/injection, vehicle: saline): 46 % of control [8 of 10 alive]
- survivor count (dose: 500.0 mg/kg/injection, vehicle: saline): 0 of 10

SMILES: O=C(O)CCc1ccc(N(CCCl)CCCl)cc1
- T/C [1]: 55 % of control
- survivor count [2]: 3 of 10
- T/C [3]: 85 % of control
- T/C [4]: 72 % of control
- T/C [5]: 73 % of control [8 of 10 alive]

SMILES: CN(N=O)C(=N)N[N+](=O)[O-]
- T/C (dose: 2.5 mg/kg/injection, vehicle: carboxymethylcellulose (CMC)): 53 % of control
- T/C (dose: 5.0 mg/kg/injection, vehicle: carboxymethylcellulose (CMC)): 47 and 132 % of control
- T/C (dose: 7.5 mg/kg/injection, vehicle: carboxymethylcellulose (CMC)): 52 % of control
- T/C (dose: 10.0 mg/kg/injection, vehicle: carboxymethylcellulose (CMC)): 35 and 80 % of control
- T/C [6]: 30 % of control [9 of 10 alive]
- survivor count [6]: 2 of 10
- survivor count (dose: 20.0 mg/kg/injection, vehicle: carboxymethylcellulose (CMC)): 0 of 10
- survivor count (dose: 25.0 mg/kg/injection, vehicle: carboxymethylcellulose (CMC)): 0 of 10 and 1 of 10
